In patent publication US11865124B2, “Vitamin c and doxycycline: a synthetic lethal combination therapy for eradicating cancer stem cells (CSCS)” (priority 2017, dated 2024):
For at least one compound, name, drawing or mass did not settle the structure.

System: MCF7-DoxyR cells
Experiment: Mammosphere formation assay (CSC propagation) in doxycycline-resistant MCF7 cells
Type: cell-based
Settings: DoxyR vs control MCF7 CSCs
Description: To test this hypothesis, the inventors generated a cancer cell sub-population metabolically synchronized toward a glycolytic phenotype by chronically treating MCF7 cells with the FDA-approved antibiotic doxycycline, a mitochondrial inhibitor. Briefly, MCF7 cells were obtained from ATCC and cultured in DMEM (Sigma Aldrich). MCF7 cells resistant to doxycycline (MCF7-DoxyR cells) were selected by a stepwise exposure to increasing concentrations of doxycycline. […] It should be appreciated that other cancer cell lines and other mitochondrial (oxidation) inhibitors may be used.
To more directly assess functional CSC activity, mammosphere formation assays may be used. Briefly, a single cell suspension of MCF7 or MCF7 DoxyR cells may be prepared using enzymatic (1× Trypsin-EDTA, Sigma Aldrich), and manual disaggregation (25-gauge needle). Cells may be plated at a density of 500 cells/cm2 in mammosphere medium (DMEM-F12/B27/20-ng/ml EGF/PenStrep) in nonadherent conditions, in culture dishes coated with (2-hydroxyethylmethacrylate) (poly-HEMA, Sigma), in the presence of Atovaquone (FIG. 6A) or Chloroquine (FIG. 6B). […] After 5 days for culture, spheres larger than 50 μm may be counted using an eye piece graticule, and the percentage of cells plated which formed spheres may be calculated. […]

`O=C1C(O)=C([C@H]2CC[C@H](c3ccc(Cl)cc3)CC2)C(=O)c2ccccc21` [Atovaquone] was tested, and the “sensitivity of MCF7-DoxyR cell propagation compared with control MCF7 CSCs” value was “significantly more sensitive”.
